Measurements from article PMC11677236.
These are yes or no findings as the source states them, for the method shown. In cells and extracts the contact can be indirect. Some binding calls cover weakened binding; strength is not graded here. Tags and fused reporters may be left off the sequences shown.

Amino acid sequences for entries named in this document (tags omitted). A change or cut given only in a name is not applied to a line headed by its entry. Chains listed by the source or under a name are the forms on record and can include a tag or linker. Residues count along the entry.
UniProt P14618: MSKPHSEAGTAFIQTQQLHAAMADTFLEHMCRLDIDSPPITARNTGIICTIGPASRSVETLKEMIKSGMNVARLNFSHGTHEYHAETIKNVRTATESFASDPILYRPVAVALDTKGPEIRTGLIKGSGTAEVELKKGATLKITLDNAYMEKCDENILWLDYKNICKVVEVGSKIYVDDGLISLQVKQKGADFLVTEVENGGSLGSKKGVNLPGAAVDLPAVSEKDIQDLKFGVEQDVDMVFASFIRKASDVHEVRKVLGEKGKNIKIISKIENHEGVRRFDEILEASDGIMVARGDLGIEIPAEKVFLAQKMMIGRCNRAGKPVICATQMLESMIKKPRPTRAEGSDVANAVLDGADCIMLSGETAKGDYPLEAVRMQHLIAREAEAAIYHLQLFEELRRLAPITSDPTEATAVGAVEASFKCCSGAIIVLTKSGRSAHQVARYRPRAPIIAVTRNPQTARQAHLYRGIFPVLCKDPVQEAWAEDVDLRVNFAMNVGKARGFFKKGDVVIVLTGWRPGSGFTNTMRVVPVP
Flag-tagged PKM2 fragment, amino acids 1-390 (NA1BA2): residues 1-390 of P14618
Flag-tagged PKM2 fragment, amino acids 1-219 (NA1B): residues 1-219 of P14618
Flag-tagged PKM2 fragment, amino acids 45-390 (A1BA2): residues 45-390 of P14618

How the values were obtained:
Assay in all cases: co-IP; HEK-293T cells co-transfected with tagged constructs; lysed supernatant incubated with Tag-conjugated beads; western blot; for PKM2/HIF-1α with rising amounts of TIPE
Flag-tagged PKM2 = Flag-tagged PKM2 (UniProt P14618)
[1] = target: Flag-tagged PKM2 fragment, amino acids 1-219 (NA1B) (UniProt P14618)
[2] = target: Flag-tagged PKM2 fragment, amino acids 1-390 (NA1BA2) (UniProt P14618)
[3] = target: Flag-tagged PKM2 fragment, amino acids 45-390 (A1BA2) (UniProt P14618)

| binding (Flag-tagged PKM2) | binding [1] | binding [2] | binding [3] | Binder |
| --- | --- | --- | --- | --- |
| binds | – | – | – | HA-tagged TIPE fragment, amino acids 1-100 (M1) (domain or fragment, UniProt O95379 1-100) MHSEAEESKEVATDVFNSKNLAVQAQKKILGKMVSKSIATTLIDDTSSEVLDELYRVTREYTQNKKEAEKIIKNLIKTVIKLAILYRNNQFNQDELALME |
| binds | binds | binds | binds | HA-tagged TIPE (protein, UniProt O95379 1-198) MHSEAEESKEVATDVFNSKNLAVQAQKKILGKMVSKSIATTLIDDTSSEVLDELYRVTREYTQNKKEAEKIIKNLIKTVIKLAILYRNNQFNQDELALMEKFKKKVHQLAMTVVSFHQVDYTFDRNVLSRLLNECREMLHQIIQRHLTAKSHGRVNNVFDHFSDCEFLAALYNPFGNFKPHLQKLCDGINKMLDEENI |
| binds | – | – | – | HA-tagged TIPE fragment, amino acids 101-198 (M2) (domain or fragment, UniProt O95379 101-198) KFKKKVHQLAMTVVSFHQVDYTFDRNVLSRLLNECREMLHQIIQRHLTAKSHGRVNNVFDHFSDCEFLAALYNPFGNFKPHLQKLCDGINKMLDEENI |
